Results as given in the supplement of paper PMC10849652.
This is one part of the list.

Sequences of proteins named here, by UniProt entry; tags and fusion partners are left off. A change or cut given only in a name is not applied to a line headed by its entry.
UniProt Q9UHD8: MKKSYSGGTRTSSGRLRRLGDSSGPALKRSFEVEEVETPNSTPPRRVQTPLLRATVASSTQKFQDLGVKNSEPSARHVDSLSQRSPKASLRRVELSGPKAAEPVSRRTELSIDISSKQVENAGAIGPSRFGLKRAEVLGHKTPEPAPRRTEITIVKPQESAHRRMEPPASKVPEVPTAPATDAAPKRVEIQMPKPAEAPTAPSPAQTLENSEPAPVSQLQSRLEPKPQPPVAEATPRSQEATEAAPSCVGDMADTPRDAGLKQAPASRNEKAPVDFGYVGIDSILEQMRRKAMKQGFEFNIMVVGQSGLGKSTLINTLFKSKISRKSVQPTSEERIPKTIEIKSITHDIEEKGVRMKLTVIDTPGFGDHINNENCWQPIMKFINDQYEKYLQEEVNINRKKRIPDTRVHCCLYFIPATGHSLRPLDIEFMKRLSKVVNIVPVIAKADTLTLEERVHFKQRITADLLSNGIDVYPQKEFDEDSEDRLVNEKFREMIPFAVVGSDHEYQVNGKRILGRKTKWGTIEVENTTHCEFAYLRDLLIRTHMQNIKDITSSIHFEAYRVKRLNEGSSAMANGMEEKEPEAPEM
UniProt Q96EQ0: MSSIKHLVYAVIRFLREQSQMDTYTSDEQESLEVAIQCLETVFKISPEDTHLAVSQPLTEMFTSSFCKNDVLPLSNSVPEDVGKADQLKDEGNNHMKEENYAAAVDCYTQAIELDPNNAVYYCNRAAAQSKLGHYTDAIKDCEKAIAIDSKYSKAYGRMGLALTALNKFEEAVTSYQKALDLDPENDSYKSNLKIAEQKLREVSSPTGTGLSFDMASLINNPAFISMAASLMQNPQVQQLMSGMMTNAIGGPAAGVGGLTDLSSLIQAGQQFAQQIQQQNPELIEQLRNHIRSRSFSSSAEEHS
UniProt Q9C0C4, whole entry, looked up: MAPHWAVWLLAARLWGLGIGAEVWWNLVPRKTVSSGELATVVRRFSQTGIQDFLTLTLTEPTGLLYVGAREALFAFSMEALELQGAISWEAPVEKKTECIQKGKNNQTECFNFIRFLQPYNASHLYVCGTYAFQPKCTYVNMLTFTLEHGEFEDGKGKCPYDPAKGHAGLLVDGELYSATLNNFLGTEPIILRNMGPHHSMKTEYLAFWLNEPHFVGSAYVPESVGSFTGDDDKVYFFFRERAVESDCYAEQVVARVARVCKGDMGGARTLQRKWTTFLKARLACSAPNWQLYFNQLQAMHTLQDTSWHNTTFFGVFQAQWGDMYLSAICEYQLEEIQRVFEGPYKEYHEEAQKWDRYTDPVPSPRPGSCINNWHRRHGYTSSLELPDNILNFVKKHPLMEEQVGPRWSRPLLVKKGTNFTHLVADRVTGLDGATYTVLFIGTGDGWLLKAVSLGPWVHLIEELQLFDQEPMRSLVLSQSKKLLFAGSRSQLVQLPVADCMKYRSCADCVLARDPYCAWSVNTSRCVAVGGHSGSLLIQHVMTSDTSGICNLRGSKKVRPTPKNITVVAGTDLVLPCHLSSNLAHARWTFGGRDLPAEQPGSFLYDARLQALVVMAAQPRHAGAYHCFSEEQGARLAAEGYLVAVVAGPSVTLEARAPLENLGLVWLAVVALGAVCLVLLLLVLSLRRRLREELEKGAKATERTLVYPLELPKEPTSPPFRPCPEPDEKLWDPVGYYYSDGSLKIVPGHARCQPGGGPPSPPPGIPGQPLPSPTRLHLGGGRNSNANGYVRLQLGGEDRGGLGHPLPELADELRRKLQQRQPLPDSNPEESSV
UniProt Q96EE3: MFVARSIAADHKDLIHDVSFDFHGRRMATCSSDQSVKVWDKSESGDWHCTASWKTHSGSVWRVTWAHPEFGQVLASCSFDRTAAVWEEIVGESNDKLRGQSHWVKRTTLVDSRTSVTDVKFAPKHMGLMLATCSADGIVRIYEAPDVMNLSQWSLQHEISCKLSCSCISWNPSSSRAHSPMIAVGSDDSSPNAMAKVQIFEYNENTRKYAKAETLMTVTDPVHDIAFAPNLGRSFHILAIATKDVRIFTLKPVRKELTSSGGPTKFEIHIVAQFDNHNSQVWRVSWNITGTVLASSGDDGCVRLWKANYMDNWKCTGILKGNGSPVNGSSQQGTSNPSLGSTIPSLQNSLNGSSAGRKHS
UniProt Q8IXJ6: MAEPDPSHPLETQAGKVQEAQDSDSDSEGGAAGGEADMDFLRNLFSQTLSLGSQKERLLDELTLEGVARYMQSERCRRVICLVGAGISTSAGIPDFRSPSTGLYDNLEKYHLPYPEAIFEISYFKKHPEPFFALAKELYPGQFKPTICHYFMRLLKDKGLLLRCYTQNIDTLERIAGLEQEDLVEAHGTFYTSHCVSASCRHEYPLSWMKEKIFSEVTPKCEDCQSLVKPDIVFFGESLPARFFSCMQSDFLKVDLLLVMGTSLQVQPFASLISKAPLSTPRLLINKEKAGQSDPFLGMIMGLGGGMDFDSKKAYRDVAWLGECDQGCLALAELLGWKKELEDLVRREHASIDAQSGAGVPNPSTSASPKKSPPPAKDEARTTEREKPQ
UniProt Q9UJC5: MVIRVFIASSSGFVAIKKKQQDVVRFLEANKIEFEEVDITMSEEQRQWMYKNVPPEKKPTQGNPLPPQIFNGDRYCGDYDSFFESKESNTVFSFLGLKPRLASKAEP
UniProt Q9BX95: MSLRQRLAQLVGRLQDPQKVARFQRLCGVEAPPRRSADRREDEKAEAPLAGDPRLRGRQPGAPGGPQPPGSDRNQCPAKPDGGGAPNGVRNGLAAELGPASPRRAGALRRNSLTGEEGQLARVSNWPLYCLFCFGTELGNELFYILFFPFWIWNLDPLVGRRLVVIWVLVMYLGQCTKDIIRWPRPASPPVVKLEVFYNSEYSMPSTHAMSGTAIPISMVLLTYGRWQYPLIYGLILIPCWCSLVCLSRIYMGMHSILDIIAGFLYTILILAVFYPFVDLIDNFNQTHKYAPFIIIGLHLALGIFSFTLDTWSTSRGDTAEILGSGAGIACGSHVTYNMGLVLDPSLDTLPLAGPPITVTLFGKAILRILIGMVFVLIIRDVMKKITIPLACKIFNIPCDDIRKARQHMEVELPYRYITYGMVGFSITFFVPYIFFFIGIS
UniProt Q8NBJ9: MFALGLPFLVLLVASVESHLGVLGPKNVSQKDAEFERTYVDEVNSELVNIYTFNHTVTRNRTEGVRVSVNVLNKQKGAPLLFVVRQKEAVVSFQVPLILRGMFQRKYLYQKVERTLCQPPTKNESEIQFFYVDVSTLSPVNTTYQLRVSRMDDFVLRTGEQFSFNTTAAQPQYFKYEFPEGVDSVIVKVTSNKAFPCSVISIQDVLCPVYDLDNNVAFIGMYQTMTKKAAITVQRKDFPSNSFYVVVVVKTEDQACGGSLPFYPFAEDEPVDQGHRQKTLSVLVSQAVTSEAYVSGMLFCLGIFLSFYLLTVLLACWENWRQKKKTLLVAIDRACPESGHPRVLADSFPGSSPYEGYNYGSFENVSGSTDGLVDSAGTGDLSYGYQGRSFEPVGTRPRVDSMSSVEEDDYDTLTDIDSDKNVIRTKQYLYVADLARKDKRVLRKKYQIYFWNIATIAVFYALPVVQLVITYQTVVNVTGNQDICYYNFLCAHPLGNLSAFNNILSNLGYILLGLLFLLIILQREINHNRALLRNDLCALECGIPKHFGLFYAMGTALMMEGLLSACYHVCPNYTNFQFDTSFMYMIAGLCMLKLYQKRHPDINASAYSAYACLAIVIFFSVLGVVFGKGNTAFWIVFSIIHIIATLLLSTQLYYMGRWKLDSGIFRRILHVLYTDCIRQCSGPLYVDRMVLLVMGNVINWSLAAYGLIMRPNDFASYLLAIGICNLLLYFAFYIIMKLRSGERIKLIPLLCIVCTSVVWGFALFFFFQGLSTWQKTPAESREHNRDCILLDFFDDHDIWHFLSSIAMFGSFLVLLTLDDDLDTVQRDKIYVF
UniProt P05543: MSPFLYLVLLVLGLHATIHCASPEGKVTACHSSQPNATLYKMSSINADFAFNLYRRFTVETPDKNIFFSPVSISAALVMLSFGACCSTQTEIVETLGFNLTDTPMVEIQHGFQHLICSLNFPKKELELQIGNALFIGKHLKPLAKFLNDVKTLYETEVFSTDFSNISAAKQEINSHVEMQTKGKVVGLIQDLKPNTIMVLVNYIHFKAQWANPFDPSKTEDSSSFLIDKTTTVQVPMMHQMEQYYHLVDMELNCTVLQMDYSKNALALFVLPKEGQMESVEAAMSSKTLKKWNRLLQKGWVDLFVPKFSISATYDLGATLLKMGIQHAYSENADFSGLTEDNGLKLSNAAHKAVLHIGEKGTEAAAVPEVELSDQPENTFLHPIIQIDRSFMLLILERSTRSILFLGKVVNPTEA
UniProt Q13228: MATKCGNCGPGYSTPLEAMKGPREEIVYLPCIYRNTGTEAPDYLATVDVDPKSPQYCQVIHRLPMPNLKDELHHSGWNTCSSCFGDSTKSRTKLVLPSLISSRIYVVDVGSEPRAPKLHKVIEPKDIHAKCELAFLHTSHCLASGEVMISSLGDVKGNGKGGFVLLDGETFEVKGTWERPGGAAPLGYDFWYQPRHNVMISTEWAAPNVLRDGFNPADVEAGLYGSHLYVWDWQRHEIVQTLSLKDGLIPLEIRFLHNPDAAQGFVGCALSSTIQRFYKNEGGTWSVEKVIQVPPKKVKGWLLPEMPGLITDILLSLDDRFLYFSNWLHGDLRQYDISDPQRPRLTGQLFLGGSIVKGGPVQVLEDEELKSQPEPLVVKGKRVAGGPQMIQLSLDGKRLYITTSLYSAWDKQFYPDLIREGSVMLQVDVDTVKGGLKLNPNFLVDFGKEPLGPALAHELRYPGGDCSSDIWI
UniProt Q8TBC3: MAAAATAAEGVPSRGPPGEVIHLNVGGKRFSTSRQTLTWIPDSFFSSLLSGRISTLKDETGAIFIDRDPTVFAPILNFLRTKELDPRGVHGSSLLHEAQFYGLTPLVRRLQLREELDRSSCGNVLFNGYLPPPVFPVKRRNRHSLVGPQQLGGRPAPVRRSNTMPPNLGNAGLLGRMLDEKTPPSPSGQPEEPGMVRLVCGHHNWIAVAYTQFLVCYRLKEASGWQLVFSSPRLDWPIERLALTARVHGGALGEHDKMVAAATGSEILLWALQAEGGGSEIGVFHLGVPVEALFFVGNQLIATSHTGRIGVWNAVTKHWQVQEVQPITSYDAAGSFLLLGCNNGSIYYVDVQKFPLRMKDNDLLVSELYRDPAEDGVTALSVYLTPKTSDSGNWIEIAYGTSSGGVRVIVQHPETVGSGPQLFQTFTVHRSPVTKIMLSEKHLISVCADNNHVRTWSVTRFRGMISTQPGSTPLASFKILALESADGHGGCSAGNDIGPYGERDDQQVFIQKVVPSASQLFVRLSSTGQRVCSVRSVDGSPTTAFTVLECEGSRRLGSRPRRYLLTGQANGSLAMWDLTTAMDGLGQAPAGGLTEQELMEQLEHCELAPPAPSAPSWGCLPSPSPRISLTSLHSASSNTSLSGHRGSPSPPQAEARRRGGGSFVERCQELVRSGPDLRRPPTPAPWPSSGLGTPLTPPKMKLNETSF
UniProt Q86VZ5: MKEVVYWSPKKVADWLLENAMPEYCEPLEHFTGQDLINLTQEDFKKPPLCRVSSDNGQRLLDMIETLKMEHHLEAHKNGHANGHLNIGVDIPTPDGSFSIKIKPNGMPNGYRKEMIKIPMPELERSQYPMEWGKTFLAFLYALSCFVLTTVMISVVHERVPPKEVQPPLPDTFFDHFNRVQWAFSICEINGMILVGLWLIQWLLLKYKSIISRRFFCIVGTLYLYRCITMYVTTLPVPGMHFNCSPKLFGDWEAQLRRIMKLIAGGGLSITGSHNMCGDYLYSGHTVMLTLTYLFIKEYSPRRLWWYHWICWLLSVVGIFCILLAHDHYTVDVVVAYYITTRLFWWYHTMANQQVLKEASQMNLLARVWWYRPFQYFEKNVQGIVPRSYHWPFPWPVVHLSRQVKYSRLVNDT
UniProt Q15427: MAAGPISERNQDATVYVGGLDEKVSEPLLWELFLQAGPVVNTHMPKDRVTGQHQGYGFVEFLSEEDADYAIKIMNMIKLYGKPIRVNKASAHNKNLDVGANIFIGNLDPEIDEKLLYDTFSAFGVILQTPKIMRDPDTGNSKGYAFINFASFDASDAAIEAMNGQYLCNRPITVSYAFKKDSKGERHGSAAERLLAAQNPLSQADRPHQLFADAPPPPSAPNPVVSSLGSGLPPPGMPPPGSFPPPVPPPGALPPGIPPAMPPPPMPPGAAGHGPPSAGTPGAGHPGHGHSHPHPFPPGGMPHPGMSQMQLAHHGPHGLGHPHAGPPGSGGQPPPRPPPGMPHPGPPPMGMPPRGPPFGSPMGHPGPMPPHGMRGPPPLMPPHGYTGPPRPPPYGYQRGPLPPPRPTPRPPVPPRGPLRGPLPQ
UniProt P63208, whole entry, looked up: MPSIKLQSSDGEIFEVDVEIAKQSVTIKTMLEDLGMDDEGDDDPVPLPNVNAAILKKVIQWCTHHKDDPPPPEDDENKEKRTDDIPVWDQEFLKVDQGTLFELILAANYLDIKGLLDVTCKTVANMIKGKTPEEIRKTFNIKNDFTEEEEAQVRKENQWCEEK
UniProt Q9BWJ5: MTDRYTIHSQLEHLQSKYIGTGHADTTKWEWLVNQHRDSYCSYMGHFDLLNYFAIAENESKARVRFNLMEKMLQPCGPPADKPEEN

How the values were obtained:
Assay in all cases: log2 fold change, soluble protein after heating vs DMSO (PISA); higher = thermal stabilisation; K562 cells, 10 uM, 30 min; active = over 0.2 and 3.5 SD of the protein, either way, in both replicates (recomputed)
[1] = compound: CS(=O)(=O)c1ccc(-c2cnc(N)c(C(=O)Nc3ccccc3)n2)cc1
Procedure, shortened: (§1)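 Thermal stability values are relative to control samples and come from duplicates. They are expressed as log2 fold changes. For measurement, K562 cells (2×10^6 cells/mL) received 10 μM compound for 30 min, and aliquots were heated for 3 min over 48°C-58°C, pooled, and extracted at 4°C in PBS with 0.5% NP-40. Soluble protein, the supernatant after 21,000xg for 90 min, was quantified by TMTpro 16plex LC-MS/MS with equalised channel sums.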

crizotinib = compound: C[C@@H](Oc1cc(-c2cnn(C3CCNCC3)c2)cnc1N)c1c(Cl)ccc(F)c1Cl [crizotinib]
Procedure, shortened: as §1

[2] = compound: C[C@@H]1COCCN1C2=NC(=NC(=C2)C3(CC3)S(=O)(=O)C)C4=C5C=CNC5=CC=C4
Procedure, shortened: as §1

[3] = compound: C[C@H](C1=CC=C(C=C1)C(=O)NC2=C3C=CNC3=NC=C2)N
Procedure, shortened: as §1

duvelisib = compound: C[C@H](Nc1ncnc2nc[nH]c12)c1cc2cccc(Cl)c2c(=O)n1-c1ccccc1 [duvelisib]
Procedure, shortened: as §1

gandotinib = compound: Cc1cc(Nc2cc(CN3CCOCC3)c3nc(C)c(Cc4ccc(Cl)cc4F)n3n2)n[nH]1 [gandotinib]
Procedure, shortened: as §1

tozasertib = compound: Cc1cc(Nc2cc(N3CCN(C)CC3)nc(Sc3ccc(NC(=O)C4CC4)cc3)n2)n[nH]1 [tozasertib]
Procedure, shortened: as §1

[4] = compound: Cc1cc(SCc2sc(-c3ccc(C(F)(F)F)cc3)nc2C)ccc1OCC(=O)O
Procedure, shortened: as §1

doramapimod = compound: Cc1ccc(-n2nc(C(C)(C)C)cc2NC(=O)Nc2ccc(OCCN3CCOCC3)c3ccccc23)cc1 [doramapimod]
Procedure, shortened: as §1

ispinesib = compound: Cc1ccc(C(=O)N(CCCN)[C@@H](c2nc3cc(Cl)ccc3c(=O)n2Cc2ccccc2)C(C)C)cc1 [ispinesib]
Procedure, shortened: as §1

bafetinib = compound: Cc1ccc(NC(=O)c2ccc(CN3CC[C@H](N(C)C)C3)c(C(F)(F)F)c2)cc1Nc1nccc(-c2cncnc2)n1 [bafetinib]
Procedure, shortened: as §1

[5] = compound: Cc1cccc(CC(=O)N2CCc3c2ccc(-c2cn(C)c4ncnc(N)c24)c3F)n1
Procedure, shortened: as §1

nilotinib = compound: Cc1cn(-c2cc(NC(=O)c3ccc(C)c(Nc4nccc(-c5cccnc5)n4)c3)cc(C(F)(F)F)c2)cn1 [nilotinib]
Procedure, shortened: as §1

[6] = compound: Cc1nc(Nc2n[nH]c3c2CN(C(=O)N[C@H](CN(C)C)c2ccccc2)C3(C)C)c2sccc2n1
Procedure, shortened: as §1

dasatinib = compound: Cc1nc(Nc2ncc(C(=O)Nc3c(C)cccc3Cl)s2)cc(N2CCN(CCO)CC2)n1 [dasatinib]
Procedure, shortened: as §1

[7] = compound: Cc1ncc(-c2ccnc(Nc3ccc(S(C)(=O)=O)cc3)n2)n1C(C)C
Procedure, shortened: as §1

[8] = compound: Cn1cc(-c2ccc3c(c2)CCN3C(=O)Cc2cccc(C(F)(F)F)c2)c2c(N)ncnc21
Procedure, shortened: as §1

[9] = compound: Cn1cc(-c2ccc3nnc(C(F)(F)c4ccc5ncccc5c4)n3n2)cn1
Procedure, shortened: as §1

tipifarnib = compound: Cn1cncc1[C@@](N)(c1ccc(Cl)cc1)c1ccc2c(c1)c(-c1cccc(Cl)c1)cc(=O)n2C [tipifarnib]
Procedure, shortened: as §1

mubritinib = compound: FC(F)(F)c1ccc(/C=C/c2nc(COc3ccc(CCCCn4ccnn4)cc3)co2)cc1 [mubritinib]
Procedure, shortened: as §1

Measured: log2 fold change

SEPTIN9 (UniProt Q9UHD8)
inactive: [1] 0.053 | crizotinib 0.009 | [2] 0.035 | [3] -0.06 | duvelisib 0.013 | gandotinib -0.06 | tozasertib 0.007 | [4] 0.017 | doramapimod -0.02 | ispinesib 0.07 | bafetinib -0.045 | [5] 0.005 | nilotinib -0.025 | [6] -0.005 | dasatinib -0.004 | [7] -0.026 | [8] 0.034 | [9] 0.019 | tipifarnib 0.008 | mubritinib 0.019

SGTB (UniProt Q96EQ0)
inactive: [1] -0.012 | crizotinib -0.011 | [2] 0.021 | [3] -0.091 | gandotinib -0.01 | tozasertib 0.038 | doramapimod -0.007 | ispinesib -0.004 | bafetinib -0.009 | [5] 0.008 | nilotinib -0.016 | [6] -0.008 | [7] 0.009 | [8] 0.047 | [9] 0.018 | tipifarnib 0.028 | mubritinib 0.051

SEMA4C (UniProt Q9C0C4)
inactive: [1] 0.002 | crizotinib -0.065 | [2] 0.04 | [3] 0.009 | duvelisib 0.008 | gandotinib 0.031 | tozasertib -0.082 | [4] -0.026 | doramapimod -0.158 | ispinesib -0.044 | bafetinib -0.051 | [5] -0.037 | nilotinib -0.007 | [6] -0.038 | dasatinib 0.026 | [7] -0.075 | [8] 0.026 | [9] 0.04 | tipifarnib 0.036 | mubritinib 0.057

SEH1L isoform 1 (UniProt Q96EE3)
inactive: [1] -0.03 | crizotinib 0.04 | [2] -0.008 | [3] -0.028 | gandotinib -0.069 | [4] 0.01 | doramapimod 0.011 | ispinesib 0.054 | bafetinib -0.083 | [5] 0.051 | nilotinib 0.012 | [6] -0.081 | dasatinib -0.008 | [7] -0.028 | [8] 0.015 | [9] -0.037 | tipifarnib -0.11 | mubritinib 0.031

SENP6 (UniProt Q9GZR1)
inactive: [1] -0.016 | crizotinib -0.015 | [2] -0.134 | [3] -0.002 | gandotinib -0.056 | [4] -0.046 | doramapimod 0.006 | ispinesib -0.046 | bafetinib 0.015 | [5] -0.015 | nilotinib 0.007 | [6] -0.038 | dasatinib -0.028 | [7] 0.063 | [8] 0.046 | [9] -0.013 | tipifarnib 0.025 | mubritinib 0.053

SIRT2 (UniProt Q8IXJ6)
inactive: [1] 0.042 | crizotinib -0.015 | [2] -0.002 | [3] 0.072 | gandotinib 0.002 | [4] -0.032 | doramapimod -0.009 | ispinesib -0.001 | bafetinib -0.041 | [5] -0.003 | nilotinib 0.061 | [6] -0.006 | dasatinib -0.032 | [7] -0.051 | [8] 0.104 | [9] -0.002 | tipifarnib 0.027 | mubritinib 0.067

SH3BGRL2 (UniProt Q9UJC5)
inactive: [1] 0.038 | crizotinib 0.039 | [2] 0.022 | [3] -0.12 | duvelisib 0.099 | gandotinib 0.007 | tozasertib 0.047 | [4] 0.068 | doramapimod -0.063 | ispinesib 0.002 | bafetinib -0.022 | [5] -0.11 | nilotinib 0.083 | [6] 0.01 | dasatinib 0.018 | [7] 0.021 | [8] 0.006 | [9] -0.052 | tipifarnib -0.05 | mubritinib 0.007

SGPP1 (UniProt Q9BX95)
inactive: [1] -0.002 | crizotinib -0.041 | [2] 0.038 | [3] -0.106 | duvelisib 0 | gandotinib -0.215 | tozasertib -0.057 | [4] -0.03 | doramapimod 0.053 | bafetinib -0.206 | [5] -0.004 | nilotinib 0.028 | [6] -0.073 | dasatinib -0.034 | [7] -0.026 | [8] 0.044 | tipifarnib 0.121 | mubritinib -0.061

SIDT2 isoform 2 (UniProt Q8NBJ9)
inactive: [1] 0.132 | crizotinib -0.026 | [2] -0.017 | [3] -0.004 | gandotinib 0.006 | [4] -0.186 | doramapimod 0.254 | ispinesib -0.143 | bafetinib -0.24 | [5] -0.025 | nilotinib -0.005 | [6] 0.104 | dasatinib 0.041 | [7] 0.025 | [8] -0.003 | [9] 0.038 | tipifarnib 0.073 | mubritinib -0.001

Two neighbouring entries out of the list so far:
SIRT2 (UniProt Q8IXJ6)
inactive: [1] 0.042 | crizotinib -0.015 | [2] -0.002 | [3] 0.072 | gandotinib 0.002 | [4] -0.032 | doramapimod -0.009 | ispinesib -0.001 | bafetinib -0.041 | [5] -0.003 | nilotinib 0.061 | [6] -0.006 | dasatinib -0.032 | [7] -0.051 | [8] 0.104 | [9] -0.002 | tipifarnib 0.027 | mubritinib 0.067

SH3BGRL2 (UniProt Q9UJC5)
inactive: [1] 0.038 | crizotinib 0.039 | [2] 0.022 | [3] -0.12 | duvelisib 0.099 | gandotinib 0.007 | tozasertib 0.047 | [4] 0.068 | doramapimod -0.063 | ispinesib 0.002 | bafetinib -0.022 | [5] -0.11 | nilotinib 0.083 | [6] 0.01 | dasatinib 0.018 | [7] 0.021 | [8] 0.006 | [9] -0.052 | tipifarnib -0.05 | mubritinib 0.007

The results go on.

SEC63 (UniProt Q9UGP8)
inactive: [1] -0.001 | crizotinib 0.062 | [2] 0.015 | [3] -0.009 | duvelisib 0.02 | gandotinib -0.038 | tozasertib -0.007 | [4] -0.016 | doramapimod -0.012 | ispinesib 0.145 | bafetinib 0.02 | [5] 0.021 | nilotinib -0.059 | [6] -0.002 | dasatinib -0.002 | [7] -0.003 | [8] 0.03 | [9] -0.001 | tipifarnib -0.04 | mubritinib 0.043

SERPINA7 (UniProt P05543)
inactive: [1] -0.16 | crizotinib 0.133 | [2] -0.095 | [3] 0.257 | gandotinib -0.02 | [4] -0.158 | doramapimod 0.217 | ispinesib 0.068 | bafetinib -0.191 | [5] -0.152 | nilotinib 0.05 | [6] 0.115 | dasatinib 0.098 | [7] 0.392 | [8] 0.238 | [9] 0.001 | tipifarnib 0.104 | mubritinib -0.247

SELENBP1 isoform 4 (UniProt Q13228)
inactive: [1] 0.001 | crizotinib 0.003 | [2] 0.055 | [3] -0.045 | duvelisib 0.009 | gandotinib -0.025 | tozasertib -0.029 | [4] -0.057 | doramapimod -0.017 | ispinesib 0.072 | bafetinib 0.043 | [5] -0.011 | nilotinib 0.02 | [6] 0.001 | dasatinib 0.061 | [7] -0.003 | [8] 0.035 | [9] 0.021 | tipifarnib 0.004 | mubritinib 0.05

SHKBP1 (UniProt Q8TBC3)
inactive: [1] 0.014 | crizotinib -0.019 | [2] -0.024 | [3] -0.019 | duvelisib 0.051 | gandotinib -0.059 | tozasertib 0.005 | [4] -0.133 | doramapimod 0.019 | ispinesib -0.055 | bafetinib -0.031 | [5] -0.089 | nilotinib 0.037 | [6] 0.059 | dasatinib 0.039 | [7] -0.09 | [8] 0.01 | [9] -0.077 | tipifarnib 0.005 | mubritinib 0

SGMS1 (UniProt Q86VZ5)
inactive: [1] 0.074 | crizotinib -0.057 | [2] 0.047 | [3] -0.049 | duvelisib 0.036 | gandotinib -0.029 | tozasertib 0.027 | [4] -0.031 | doramapimod -0.007 | ispinesib 0.029 | bafetinib -0.048 | [5] -0.002 | nilotinib -0.032 | [6] -0.012 | dasatinib 0.001 | [7] -0.014 | [8] -0.008 | [9] -0.034 | tipifarnib 0.025 | mubritinib -0.007

SF3B4 (UniProt Q15427)
inactive: [1] -0.054 | crizotinib -0.006 | [2] -0.016 | [3] 0.07 | duvelisib -0.012 | gandotinib 0.055 | tozasertib 0.028 | [4] 0.001 | doramapimod 0.031 | ispinesib -0.038 | bafetinib 0.029 | [5] -0.052 | nilotinib 0.069 | [6] 0.004 | dasatinib 0.097 | [7] 0.042 | [8] -0.177 | [9] -0.04 | tipifarnib 0.068 | mubritinib 0.005

SKP1 (UniProt P63208)
active: [5] 0.289
inactive: [1] -0.052 | crizotinib 0.027 | [2] -0.039 | [3] -0.19 | gandotinib -0.035 | [4] 0.038 | doramapimod -0.096 | ispinesib 0.089 | bafetinib -0.003 | nilotinib 0.024 | [6] -0.011 | dasatinib 0.007 | [7] 0.012 | [8] 0.047 | [9] -0.017 | tipifarnib -0.06 | mubritinib -0.001

SF3B5 (UniProt Q9BWJ5)
inactive: [1] 0.027 | crizotinib -0.012 | [2] 0.176 | gandotinib 0.087 | [4] 0.002 | doramapimod -0.089 | bafetinib -0.115 | [5] -0.056 | nilotinib 0.029 | [6] 0.008 | dasatinib -0.189 | [7] -0.064 | tipifarnib -0.018 | mubritinib -0.043
